This test is described as follows: IkB Signaling. The following applies: ABC-DLBCL IkBa-CBG/CBR dual luciferase ratio (green luciferase fused to IkBa over red control in OCI-Ly3 lymphoma cells), 4 h. Put shortly: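 Curves were fitted separately to fusion (green), unfused (red) and ratio luminescence, then classed by r2, magnitude and activity. Cells: OCI-Ly3, 4 h compound plus doxycycline at 37C; 10 uM MG-132 defined full response.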
Setting [1] is: measured here: control luc red channel unless noted.
Where [2] appears, read: measured here: IkB-luc green channel.
Setting [3] is: measured here: control luc red channel.

Each structure is given as a SMILES string. This is one part of the list. The main result of the screen is listed elsewhere. These columns were measured beside it and carry no call. The list favours compounds with an active or inconclusive main result. Words in brackets tell the shape of the fitted curve; partial curves, single points and poor fits give uncertain potencies.

The text below walks through data of PubChem BioAssay AID445 (National Center for Advancing Translational Sciences (NCATS), 2006).

Take `COC(=O)c1sc2cccc(F)c2c1S(=O)(=O)NC(C)c1ccccc1` (configuration not stated): the AC50 (in general, the midpoint of the concentration-response curve, whichever way the signal moves) under setting [1] was 7.94 µM [falling, full curve].
As for `CCc1ccc(NCc2cc3ccc(OC)cc3n(CC(=O)Nc3ccccc3OC)c2=O)cc1`, the half-maximal activity concentration (AC50) under setting [1] is 12.6 µM [falling, partial curve].
Regarding `COC(=O)c1ccccc1NC(=O)Nc1cccnc1`, the AC50 under setting [1] was 12.6 µM [falling, partial curve].
Still for that read-out and setting: the result for `COc1ccc(S(=O)(=O)NCc2ccc(C(=O)N3CCN(c4ccccn4)CC3)cc2)cc1` reads 20 µM [falling, single point]; that for `COc1ccc(OCc2nc(-c3ccc(OC)c(OC)c3)no2)cc1`, 0.0631 µM [falling, full curve, poor fit].
For the molecule `CCN1CC2=C(OC(N)=C(C#N)C2c2cccs2)/C(=C/c2cccs2)C1` (configuration not stated), the AC50 under setting [1] was 31.6 µM [falling, partial curve].
For `Cc1nnc(SCCc2ccccc2)[nH]c1=O`, under setting [1], the AC50 is 39.8 µM [falling, single point].
As to `O=C(CSc1nc2ccccc2[nH]1)c1cccs1`, the AC50 under setting [1] was 3.16 µM [falling, full curve].
`O=C(CCNc1ccc(F)cc1)c1ccco1`: the AC50 under setting [1] was 12.6 µM [falling, partial curve].
Take `COc1cccc(NC(=O)CSc2nnc3[nH]c(=O)cc(-c4ccccc4)n23)c1`: under setting [1], the half-maximal activity concentration (AC50) is 12.6 µM [falling, partial curve, poor fit].
On the same count and under the same terms, to `CCOC(=O)C1CCCN(C(=O)c2ccc(C)c(NC(=O)c3nsc4ccccc34)c2)C1` (configuration not stated) belongs 39.8 µM [falling, single point]; to `Nc1c(S(=O)(=O)c2ccccc2)c2nc3ccccc3nc2n1/N=C/c1cccc(O)c1`, 3.16 µM [falling, full curve]; to `Cc1ccc2cc(S(=O)(=O)NCCCC(=O)O)ccc2c1`, 10 µM [falling, partial curve].
The same measure, in the same setting: the result for `COc1ccc2c(c1)OCC1=C2CCC2(C)C(=O)CC=C12` (configuration not stated) reads 15.8 µM [falling, partial curve]; that for `Cc1ccc(C)c(-c2ccc(=O)n(C(C)C(=O)Nc3ccccc3C(F)(F)F)n2)c1` (configuration not stated), 31.6 µM [falling, single point]; that for `O=C(NC1CC(=O)N(c2cccc(F)c2)C1)c1ccc(S(=O)(=O)N2CCCCC2)cc1` (configuration not stated), 7.94 µM [falling, single point].
Consider `Cc1ccc(OCC(=O)Nc2nnc(SCc3cc(=O)n4cc(C)ccc4n3)s2)cc1`, for which the AC50 under setting [1] is 1.58 µM [falling, full curve].
In the case of `CN(C)c1cccc(C(=O)Nc2ccc(-c3nc4ccccc4s3)cc2)c1`, the concentration at half-maximal activity (AC50) under setting [1] is 0.316 µM [rising, partial curve].
Regarding `O=C(CSc1nc2c(oc3ccccc32)c(=O)[nH]1)Nc1cccc(Cl)c1`, under setting [1], the AC50 was 12.6 µM [falling, partial curve].
Turning to `CCOC(=O)c1cccc(NC(=O)CCNS(=O)(=O)c2cccc3nonc23)c1`, the concentration at half-maximal activity (AC50) under setting [1] is 39.8 µM [falling, single point].
Regarding `Cc1ccc(CCNC(=O)c2ccc(CSCc3ccc(C)cc3)o2)cc1`, the AC50 under setting [1] was 25.1 µM [falling, single point].
Take `COc1ccc(-c2nc3scc(CCNS(=O)(=O)c4cccc(C(C)=O)c4)n3n2)cc1`: under setting [1], the concentration at half-maximal activity (AC50) was 10 µM [falling, partial curve].
As for `O=C1Nc2cc(Cl)ccc2Oc2cc(Oc3ccccc3)ccc21`, the half-maximal activity concentration (AC50) under setting [1] was 1 µM [rising, full curve, poor fit].
For `COCCn1c(-c2ccc(Cl)cc2)cnc1SCC(=O)NCc1cccs1`, the half-maximal activity concentration (AC50) reads like this: under setting [2], 31.6 µM [falling, single point]; under setting [3], 15.8 µM [falling, partial curve].
On to `Cc1ccc(C)c(CN2C(=O)c3ccccc3S(=O)c3ccc(C(=O)NCc4ccco4)cc32)c1` (configuration not stated), for which, under setting [1], the concentration at half-maximal activity (AC50) was 6.31 µM [falling, single point].
Regarding `Cc1ccc(NC(=O)Cn2cc(S(=O)(=O)NC(C)C)c(S(=O)(=O)NC(C)C)c2)cc1Cl`, the AC50 under setting [1] is 12.6 µM [falling, partial curve].
For `COC(=O)c1c(SCC(=O)Nc2ccccc2OC)[nH]c2ccccc2c1=O`, under setting [1], the AC50 was 10 µM [falling, partial curve].
For the molecule `Cc1cc2ccccc2n1-c1ccc(C(=O)N2CCC(C(=O)NCc3ccc(F)cc3)CC2)s1`, the AC50 was 0.0631 µM [rising, full curve] under setting [2] and 39.8 µM [falling, single point] under setting [3].
On to `COc1ccc(Oc2nc3c(c(=O)n(Cc4ccccc4Cl)c(=O)n3C)n2C)cc1`, for which the concentration at half-maximal activity (AC50) under setting [1] is 39.8 µM [falling, single point].
`Cc1ccc(C)c(N2CCN(C(=O)COc3cc(=O)n(C)c4ccccc34)CC2)c1`: the AC50 under setting [1] was 15.8 µM [falling, partial curve].
With `Cc1c(Cl)cccc1NC(=O)CSc1cc(-c2ccccc2)ncn1`, the concentration at half-maximal activity (AC50) under setting [1] was 0.02 µM [falling, full curve, poor fit].
Regarding `Cc1ccc(-c2nnc(Nc3ccc(O)cc3)c3ccccc23)cc1S(=O)(=O)NCC1CCCO1` (configuration not stated), the concentration at half-maximal activity (AC50) under setting [1] was 10 µM [falling, partial curve].
Still for that read-out and setting: to `Cc1ccc(S(=O)(=O)Nc2ccc3c(c2)c(C(=O)OC(C)C)c(C)n3S(=O)(=O)c2ccc(C)cc2)cc1` belongs 0.158 µM [rising, full curve, poor fit]; to `O=S(=O)(Nc1ccc(Br)cc1)c1ccc2nc(-c3ccccc3)[nH]c2c1`, 20 µM [falling, partial curve]; to `O=C(CCC1N=C2c3ccccc3N=C(SCc3cccc(F)c3)N2C1=O)NCc1ccc(F)cc1` (configuration not stated), 39.8 µM [falling, single point].
On to `COc1ccccc1N=c1scc(-c2ccc3c(c2)NC(=O)CO3)n1CC1CCCO1` (configuration not stated), for which, under setting [1], the AC50 is 15.8 µM [falling, partial curve].
Same read-out and setting: to `O=C1CC(N2CCCc3ccccc32)C(=O)N1c1ccccc1` (configuration not stated) belongs 0.316 µM [falling, full curve].
As for `COc1ccc(C(=O)c2cn(Cc3cccc(C)c3)c3cc4c(cc3c2=O)OCCO4)cc1OC`, the AC50 under setting [1] is 39.8 µM [falling, single point].
Turning to `CCN(CC)CCNC(=O)Cn1ncc2c3ccccc3n(Cc3ccccc3C)c2c1=O`, the AC50 under setting [1] was 25.1 µM [falling, partial curve].
Take `COC(=O)c1ccccc1NC(=O)c1cc(=O)c2ccc(C)c(C)c2o1`: the AC50 under setting [1] is 39.8 µM [falling, single point].
